Source: article PMC5129514

By UniProt entry, the sequences of proteins in these tests, tags left out. Where a name states a change or a piece, a line headed by the entry shows the natural chain unless it says otherwise. Chains listed by the source or under a name are the forms on record and can include a tag or linker. Residues count along the entry.
UniProt Q3UVX5, residues 19-1203: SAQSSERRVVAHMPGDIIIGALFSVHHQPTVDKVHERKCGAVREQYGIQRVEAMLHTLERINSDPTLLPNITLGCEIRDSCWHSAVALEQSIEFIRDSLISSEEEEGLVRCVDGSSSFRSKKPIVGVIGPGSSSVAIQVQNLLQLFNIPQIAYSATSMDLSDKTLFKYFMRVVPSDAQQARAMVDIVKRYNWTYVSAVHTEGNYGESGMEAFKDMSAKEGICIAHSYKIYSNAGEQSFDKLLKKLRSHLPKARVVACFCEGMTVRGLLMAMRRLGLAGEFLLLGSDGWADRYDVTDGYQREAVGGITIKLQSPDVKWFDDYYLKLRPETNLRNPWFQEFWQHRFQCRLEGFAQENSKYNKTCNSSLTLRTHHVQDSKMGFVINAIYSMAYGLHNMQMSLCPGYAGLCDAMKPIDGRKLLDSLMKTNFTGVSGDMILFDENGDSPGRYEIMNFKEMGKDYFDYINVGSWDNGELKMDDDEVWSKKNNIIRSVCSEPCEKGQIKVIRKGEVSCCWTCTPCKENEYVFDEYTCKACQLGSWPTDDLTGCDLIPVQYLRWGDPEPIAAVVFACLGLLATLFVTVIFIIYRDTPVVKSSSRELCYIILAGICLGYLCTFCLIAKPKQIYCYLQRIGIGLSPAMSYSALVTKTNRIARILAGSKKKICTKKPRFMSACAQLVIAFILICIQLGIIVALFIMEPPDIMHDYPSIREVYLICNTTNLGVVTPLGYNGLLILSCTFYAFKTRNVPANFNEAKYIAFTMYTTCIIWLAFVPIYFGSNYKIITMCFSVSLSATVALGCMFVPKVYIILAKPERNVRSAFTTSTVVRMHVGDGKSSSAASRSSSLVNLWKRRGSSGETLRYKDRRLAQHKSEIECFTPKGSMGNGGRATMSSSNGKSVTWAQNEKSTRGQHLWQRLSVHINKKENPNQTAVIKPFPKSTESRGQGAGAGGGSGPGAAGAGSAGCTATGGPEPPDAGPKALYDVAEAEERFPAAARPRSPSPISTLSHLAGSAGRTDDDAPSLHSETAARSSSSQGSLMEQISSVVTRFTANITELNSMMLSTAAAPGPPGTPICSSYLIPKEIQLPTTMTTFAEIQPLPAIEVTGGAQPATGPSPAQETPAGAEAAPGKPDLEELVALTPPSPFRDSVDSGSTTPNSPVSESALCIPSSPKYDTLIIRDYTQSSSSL
metabotropic glutamate receptor 1, isoform a (P97772, residues 21-1199): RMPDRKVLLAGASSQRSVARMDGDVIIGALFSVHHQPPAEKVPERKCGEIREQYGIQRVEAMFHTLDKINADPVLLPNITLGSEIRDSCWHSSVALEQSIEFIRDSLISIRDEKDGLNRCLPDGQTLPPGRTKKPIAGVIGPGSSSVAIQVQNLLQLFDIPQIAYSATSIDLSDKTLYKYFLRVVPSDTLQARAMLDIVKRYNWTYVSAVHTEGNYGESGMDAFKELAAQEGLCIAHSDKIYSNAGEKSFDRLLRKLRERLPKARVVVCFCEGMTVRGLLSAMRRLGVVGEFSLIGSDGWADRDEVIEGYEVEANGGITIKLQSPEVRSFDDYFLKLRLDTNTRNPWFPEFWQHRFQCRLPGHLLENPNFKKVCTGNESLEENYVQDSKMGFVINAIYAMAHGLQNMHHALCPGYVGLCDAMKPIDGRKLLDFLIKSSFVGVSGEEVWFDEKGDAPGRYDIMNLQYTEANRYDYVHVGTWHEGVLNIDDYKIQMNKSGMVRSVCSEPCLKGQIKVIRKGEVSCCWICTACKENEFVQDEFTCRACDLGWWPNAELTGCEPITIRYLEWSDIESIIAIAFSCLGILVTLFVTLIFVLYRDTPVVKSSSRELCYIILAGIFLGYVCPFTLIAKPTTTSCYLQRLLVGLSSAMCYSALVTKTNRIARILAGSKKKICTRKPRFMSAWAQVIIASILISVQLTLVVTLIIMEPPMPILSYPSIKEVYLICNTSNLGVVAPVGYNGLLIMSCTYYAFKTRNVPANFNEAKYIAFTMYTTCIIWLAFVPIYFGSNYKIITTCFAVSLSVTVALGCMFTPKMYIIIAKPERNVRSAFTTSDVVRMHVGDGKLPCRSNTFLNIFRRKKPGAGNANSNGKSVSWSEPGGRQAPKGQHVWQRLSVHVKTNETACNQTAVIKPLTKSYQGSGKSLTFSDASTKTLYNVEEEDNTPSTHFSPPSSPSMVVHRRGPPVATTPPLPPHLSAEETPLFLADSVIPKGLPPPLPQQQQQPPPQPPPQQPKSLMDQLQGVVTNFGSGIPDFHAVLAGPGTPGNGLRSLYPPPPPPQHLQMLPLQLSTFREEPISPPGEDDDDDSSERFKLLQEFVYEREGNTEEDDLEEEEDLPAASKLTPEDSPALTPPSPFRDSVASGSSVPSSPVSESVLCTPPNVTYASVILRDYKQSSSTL
metabotropic glutamate receptor 1, isoform b (P97772, form named): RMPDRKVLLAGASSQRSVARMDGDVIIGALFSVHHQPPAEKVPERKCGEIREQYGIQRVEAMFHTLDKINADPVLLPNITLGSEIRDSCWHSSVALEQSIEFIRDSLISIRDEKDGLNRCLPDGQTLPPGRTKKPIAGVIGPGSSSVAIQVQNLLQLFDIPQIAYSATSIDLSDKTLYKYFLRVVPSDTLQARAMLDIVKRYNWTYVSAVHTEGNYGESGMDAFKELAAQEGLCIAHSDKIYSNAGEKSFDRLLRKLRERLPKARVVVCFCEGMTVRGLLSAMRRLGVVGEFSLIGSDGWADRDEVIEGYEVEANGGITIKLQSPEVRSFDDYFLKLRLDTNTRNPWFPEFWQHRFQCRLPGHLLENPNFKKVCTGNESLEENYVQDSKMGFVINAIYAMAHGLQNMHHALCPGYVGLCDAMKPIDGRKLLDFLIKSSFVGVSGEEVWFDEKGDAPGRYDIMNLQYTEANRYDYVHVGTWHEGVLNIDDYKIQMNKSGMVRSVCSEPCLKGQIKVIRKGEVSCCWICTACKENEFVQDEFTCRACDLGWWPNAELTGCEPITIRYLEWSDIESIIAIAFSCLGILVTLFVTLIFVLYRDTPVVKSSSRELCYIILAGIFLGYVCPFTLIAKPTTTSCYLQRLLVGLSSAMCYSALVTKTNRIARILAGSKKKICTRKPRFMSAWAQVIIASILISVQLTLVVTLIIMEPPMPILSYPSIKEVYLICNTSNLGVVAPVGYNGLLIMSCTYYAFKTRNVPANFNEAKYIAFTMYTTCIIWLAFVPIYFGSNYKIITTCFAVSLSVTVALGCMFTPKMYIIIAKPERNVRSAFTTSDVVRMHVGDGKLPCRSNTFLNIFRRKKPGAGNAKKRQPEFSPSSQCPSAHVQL
UniProt A8DUK4: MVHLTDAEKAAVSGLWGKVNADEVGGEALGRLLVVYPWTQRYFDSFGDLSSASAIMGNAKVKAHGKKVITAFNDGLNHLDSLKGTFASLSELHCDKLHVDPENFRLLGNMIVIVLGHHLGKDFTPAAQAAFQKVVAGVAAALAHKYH
UniProt Q9QYS2, residues 23-879: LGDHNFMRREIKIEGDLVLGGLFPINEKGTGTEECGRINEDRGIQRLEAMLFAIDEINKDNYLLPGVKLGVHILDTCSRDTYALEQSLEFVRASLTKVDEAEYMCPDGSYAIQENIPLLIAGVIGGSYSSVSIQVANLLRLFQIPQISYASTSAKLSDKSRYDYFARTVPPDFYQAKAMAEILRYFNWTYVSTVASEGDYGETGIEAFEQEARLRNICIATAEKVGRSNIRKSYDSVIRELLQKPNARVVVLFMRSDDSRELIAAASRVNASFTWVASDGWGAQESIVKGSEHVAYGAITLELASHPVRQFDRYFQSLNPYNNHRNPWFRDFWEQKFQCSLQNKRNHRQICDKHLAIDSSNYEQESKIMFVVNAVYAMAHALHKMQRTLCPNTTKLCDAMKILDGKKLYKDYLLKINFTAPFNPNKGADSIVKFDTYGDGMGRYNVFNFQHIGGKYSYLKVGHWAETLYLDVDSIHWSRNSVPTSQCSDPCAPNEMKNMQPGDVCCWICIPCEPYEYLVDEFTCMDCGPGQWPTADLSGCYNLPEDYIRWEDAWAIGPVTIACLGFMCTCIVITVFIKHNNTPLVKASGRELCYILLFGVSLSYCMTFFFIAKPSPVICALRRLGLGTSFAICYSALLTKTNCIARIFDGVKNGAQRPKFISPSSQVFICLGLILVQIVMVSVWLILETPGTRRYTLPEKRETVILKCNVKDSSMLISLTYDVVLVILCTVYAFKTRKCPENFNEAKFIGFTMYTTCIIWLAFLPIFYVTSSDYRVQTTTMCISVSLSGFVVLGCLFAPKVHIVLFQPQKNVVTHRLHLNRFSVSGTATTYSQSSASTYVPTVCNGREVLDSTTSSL
UniProt P10852: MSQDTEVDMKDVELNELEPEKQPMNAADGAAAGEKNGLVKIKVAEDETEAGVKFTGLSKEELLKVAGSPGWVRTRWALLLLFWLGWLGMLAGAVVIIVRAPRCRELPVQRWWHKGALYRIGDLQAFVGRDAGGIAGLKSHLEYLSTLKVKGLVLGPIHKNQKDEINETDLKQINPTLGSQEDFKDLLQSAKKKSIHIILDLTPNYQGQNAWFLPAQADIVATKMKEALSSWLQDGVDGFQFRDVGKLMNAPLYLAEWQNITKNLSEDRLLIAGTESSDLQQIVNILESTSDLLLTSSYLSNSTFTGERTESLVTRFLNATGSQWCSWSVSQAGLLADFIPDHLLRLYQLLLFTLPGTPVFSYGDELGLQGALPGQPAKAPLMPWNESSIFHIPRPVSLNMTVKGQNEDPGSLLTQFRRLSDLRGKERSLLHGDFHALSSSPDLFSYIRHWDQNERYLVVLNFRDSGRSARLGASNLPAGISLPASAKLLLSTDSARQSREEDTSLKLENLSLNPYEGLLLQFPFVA
UniProt P26443, residues 54-558: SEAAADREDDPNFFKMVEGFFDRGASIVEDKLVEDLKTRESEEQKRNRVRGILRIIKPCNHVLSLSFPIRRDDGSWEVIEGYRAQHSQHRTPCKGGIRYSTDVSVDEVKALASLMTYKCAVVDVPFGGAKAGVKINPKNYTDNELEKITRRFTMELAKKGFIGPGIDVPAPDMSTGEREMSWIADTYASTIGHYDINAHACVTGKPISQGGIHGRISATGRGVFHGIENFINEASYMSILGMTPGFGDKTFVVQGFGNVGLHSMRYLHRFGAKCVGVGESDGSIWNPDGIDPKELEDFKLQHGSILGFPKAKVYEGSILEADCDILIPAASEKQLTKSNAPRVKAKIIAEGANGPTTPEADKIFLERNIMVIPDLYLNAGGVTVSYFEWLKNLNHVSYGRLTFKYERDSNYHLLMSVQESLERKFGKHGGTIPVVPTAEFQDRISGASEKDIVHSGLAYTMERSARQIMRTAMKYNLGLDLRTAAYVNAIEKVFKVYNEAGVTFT
UniProt Q06890, residues 22-448: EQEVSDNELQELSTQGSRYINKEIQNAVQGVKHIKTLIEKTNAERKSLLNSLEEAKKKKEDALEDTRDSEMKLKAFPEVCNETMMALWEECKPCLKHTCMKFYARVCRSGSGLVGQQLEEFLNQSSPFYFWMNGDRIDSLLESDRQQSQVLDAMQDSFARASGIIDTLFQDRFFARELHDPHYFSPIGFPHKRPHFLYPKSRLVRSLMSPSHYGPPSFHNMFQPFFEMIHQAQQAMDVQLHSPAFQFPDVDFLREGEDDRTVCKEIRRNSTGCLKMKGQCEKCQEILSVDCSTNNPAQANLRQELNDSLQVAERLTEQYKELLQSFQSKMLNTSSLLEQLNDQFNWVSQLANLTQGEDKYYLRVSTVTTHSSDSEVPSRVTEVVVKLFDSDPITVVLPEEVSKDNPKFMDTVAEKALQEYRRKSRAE

What was measured:
[1] = target: metabotropic glutamate receptor 5 (mouse (endogenous in hippocampus and cortex)) (UniProt Q3UVX5); assay: affinity purification with mass spectrometry; IP with anti-mGluR5 polyclonal antibody (10 ug, overnight, 4°C) from 1% n-dodecyl β-D-maltoside extracts (25 mM HEPES pH 7.4, 150 mM NaCl) of mouse hippocampus and cortex, Protein A/G agarose, FASP digestion, LC-MS/MS; mGluR5 knockout mice as negative control; filter: present in ≥3 of 4 WT IPs and ≥10-fold enriched
[2] = target: metabotropic glutamate receptor 1, isoform a (mouse (endogenous in hippocampus and cortex)) (UniProt P97772); assay: affinity purification with mass spectrometry; reverse IP with monoclonal anti-mGluR1a antibody (BD Biosciences, clone G209-488) from mouse hippocampus extract, LC-MS/MS; non-mGluR1 antibody as negative control; >10-fold enrichment
[3] = target: metabotropic glutamate receptor 5 (mouse (endogenous in hippocampus and cortex)) (UniProt Q3UVX5); assay: affinity purification with mass spectrometry; IP with anti-mGluR5 antibody from equal amounts (2 mg) of P2, microsome and P1 fractions of mouse hippocampus; SDS-PAGE and in-gel digestion, LC-MS/MS; empty bead control

Substance: hemoglobin (from UniProt A8DUK4 1-147)
- binding [1]: no binding

Substance: metabotropic glutamate receptor 5 (from UniProt Q3UVX5 19-1203)
- binding [2]: binds

Substance: Grm3 (from UniProt Q9QYS2 23-879) (receptor)
- binding [1]: binds

Substance: metabotropic glutamate receptor 1, isoform b (from UniProt P97772 21-886)
- binding [3]: binds
- binding [2]: binds
- binding [1]: binds

Substance: metabotropic glutamate receptor 1, isoform a (from UniProt P97772 21-1199)
- binding [3]: binds
- binding [1]: binds

Substance: Slc3a2 (from UniProt P10852 1-526)
- binding [1]: no binding

Substance: Glud1 (from UniProt P26443 54-558) (enzyme)
- binding [1]: no binding

Substance: Clu (from UniProt Q06890 22-448)
- binding [1]: binds

These are yes or no findings as the source states them, for the method shown. In cells and extracts the contact can be indirect. Here binding means that the protein was enriched with, or labelled near, the bait; the list need not be complete. For some assays here: A no says only that the protein was not detected with the bait.
